PubChem BioAssay AID720505, Drosophila RNAi Screening Center, 2013
Aim: 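Genes needed for store-operated calcium entry in fly cells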 (primary screen). Cell system: Drosophila S2R+ cells. Reagents: long dsRNA against Drosophila genes. Conditions: thapsigargin (2 µM) in calcium-free buffer to empty internal stores, then 2 mM calcium added back. Measured: 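Fluo-4 signal in 384-well plates read on a FLIPR after thapsigargin (2 µM, calcium-free) store depletion and 2 mM calcium add-back; unnormalised mean endpoint per well; screen run twice, selected wells retested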. Scale: calcium signal and retest calcium signal: higher = more calcium entry after store depletion. Active means: 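Knock-downs counted as hits when calcium entry dropped relative to STIM1 positive and Rho1 negative controls present on each plate; roughly 1500 genes called, with reductions of differing size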. Calls: active = called as lowering calcium entry; inactive = not called.
The screen tested about 20,000 reagents; shown is a random part of those that have a named target and a result. In the full data, about 2,100 (10%) got an active call. 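Raw plate signals without normalisation; calls rest on control-based scores that were not deposited; replicate 2 separates called from uncalled poorly.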 A plus sign joins genes that one reagent is predicted to hit. Not stated in the record: the amount of reagent, the time to read-out.

For CG10907 [DRSC09804], the values are calcium signal, replicate 1 = 77; calcium signal, replicate 2 = 84.6; inactive.
Depletion of CG15233 [DRSC04967] resulted in: calcium signal, replicate 1 = 179; calcium signal, replicate 2 = 114; inactive.
Rcd4 (Reduction in Cnn dots 4) [DRSC02597] gave calcium signal, replicate 1 = 168; calcium signal, replicate 2 = 186; inactive.
Against CG13972 [DRSC14715] the deposit lists calcium signal, replicate 1 = 128; calcium signal, replicate 2 = 84.6; inactive.
CG9083 + Tpc2 [DRSC04625] showed calcium signal, replicate 1 = 94; calcium signal, replicate 2 = 77.6; inactive.
Depletion of CG7484 [DRSC10853] came out at: calcium signal, replicate 1 = 83.8; calcium signal, replicate 2 = 154; inactive.
TfIIFalpha (Transcription factor IIFalpha) [DRSC12608] gave calcium signal, replicate 1 = 109; calcium signal, replicate 2 = 115; inactive.
Against Best1 (Bestrophin 1) [DRSC16909], the entry reads calcium signal, replicate 1 = 121; calcium signal, replicate 2 = 78.3; retest calcium signal, replicate 1 = 78.3; retest calcium signal, replicate 2 = 81; inactive.
Against CG7214 [DRSC03028] the deposit lists calcium signal, replicate 1 = 65.8; calcium signal, replicate 2 = 62.4; retest calcium signal, replicate 1 = 158; retest calcium signal, replicate 2 = 219; active.
Against CG7214 [DRSC21869], the values are calcium signal, replicate 1 = 80.6; calcium signal, replicate 2 = 165; inactive.
Knock-down of SMC5 (Structural maintenance of chromosomes 5) [DRSC11849] came out at: calcium signal, replicate 1 = 105; calcium signal, replicate 2 = 103; inactive.
Against CG42505 + CG42504 + CG31358 [DRSC15235], the entry reads calcium signal, replicate 1 = 143; calcium signal, replicate 2 = 152; inactive.
Knock-down of CG42505 + CG42504 + CG31358 [DRSC15308] came out at: calcium signal, replicate 1 = 120; calcium signal, replicate 2 = 81.9; inactive.
CG42505 + CG42504 + CG31358 [DRSC15309] showed calcium signal, replicate 1 = 50.5; calcium signal, replicate 2 = 173; active.
With knock-down of Spn28Da (Serpin 28Da) [DRSC02162], the screen gave calcium signal, replicate 1 = 95.9; calcium signal, replicate 2 = 149; inactive.
betaTry (betaTrypsin) [DRSC07582] scored calcium signal, replicate 1 = 119; calcium signal, replicate 2 = 192; retest calcium signal, replicate 1 = 10700; retest calcium signal, replicate 2 = 180; inactive.
Against betaTry (betaTrypsin) [DRSC22377], the entry reads calcium signal, replicate 1 = 67.9; calcium signal, replicate 2 = 186; inactive.

Part of the list above in another layout:
{"target": "CG7214", "amplicon": "DRSC03028", "calcium signal, replicate 1": 65.8, "calcium signal, replicate 2": 62.4, "retest calcium signal, replicate 1": 158, "retest calcium signal, replicate 2": 219, "call": "active"}
{"target": "CG7214", "amplicon": "DRSC21869", "calcium signal, replicate 1": 80.6, "calcium signal, replicate 2": 165, "call": "inactive"}
{"target": "SMC5 (Structural maintenance of chromosomes 5)", "amplicon": "DRSC11849", "calcium signal, replicate 1": 105, "calcium signal, replicate 2": 103, "call": "inactive"}
{"target": "CG42505 + CG42504 + CG31358", "amplicon": "DRSC15235", "calcium signal, replicate 1": 143, "calcium signal, replicate 2": 152, "call": "inactive"}

Continued:
Silencing of Tm2 (Tropomyosin 2) [DRSC16887] came out at: calcium signal, replicate 1 = 96.8; calcium signal, replicate 2 = 134; inactive.
With knock-down of Clk (Clock) [DRSC11117] the results were calcium signal, replicate 1 = 73.6; calcium signal, replicate 2 = 78.7; inactive.
With knock-down of Ptr (Patched-related) [DRSC04852] the results were calcium signal, replicate 1 = 154; calcium signal, replicate 2 = 202; inactive.
With knock-down of Ptr (Patched-related) [DRSC21517], the record shows calcium signal, replicate 1 = 144; calcium signal, replicate 2 = 100; inactive.
Silencing of Vha100-3 (Vacuolar H[+] ATPase 100kD subunit 3) [DRSC05760] gave: calcium signal, replicate 1 = 127; calcium signal, replicate 2 = 123; inactive.
With knock-down of Tgi (Tondu-domain-containing Growth Inhibitor) [DRSC09793], the screen gave calcium signal, replicate 1 = 101; calcium signal, replicate 2 = 80; inactive.
Tgi (Tondu-domain-containing Growth Inhibitor) [DRSC09794] showed calcium signal, replicate 1 = 54.9; calcium signal, replicate 2 = 88.3; active.
Knock-down of Srp72 (Signal recognition particle 72) [DRSC15800] gave: calcium signal, replicate 1 = 173; calcium signal, replicate 2 = 230; inactive.
CG31797 [DRSC02476] gave calcium signal, replicate 1 = 191; calcium signal, replicate 2 = 107; inactive.
CG31797 [DRSC02477] gave calcium signal, replicate 1 = 178; calcium signal, replicate 2 = 75.9; inactive.
Knock-down of CG10948 [DRSC09806] gave: calcium signal, replicate 1 = 73.8; calcium signal, replicate 2 = 85.4; inactive.
With knock-down of CG7202 [DRSC11818] the results were calcium signal, replicate 1 = 97.2; calcium signal, replicate 2 = 149; inactive.
After knock-down of CG13482 [DRSC10024], the record shows calcium signal, replicate 1 = 105; calcium signal, replicate 2 = 127; inactive.
With knock-down of kermit [DRSC06074] the results were calcium signal, replicate 1 = 193; calcium signal, replicate 2 = 155; inactive.
CG9799 [DRSC16567] showed calcium signal, replicate 1 = 103; calcium signal, replicate 2 = 100; inactive.
Knock-down of Fcp1 (TFIIF-interacting CTD phosphatase) [DRSC04121] came out at: calcium signal, replicate 1 = 209; calcium signal, replicate 2 = 89.8; inactive.
Depletion of Nepl4 (Neprilysin-like 4) [DRSC03239] resulted in: calcium signal, replicate 1 = 121; calcium signal, replicate 2 = 201; inactive.
For Rsph9 (Radial spoke head protein 9) [DRSC01594], the values are calcium signal, replicate 1 = 235; calcium signal, replicate 2 = 87.9; inactive.
